The data set in a line: general procedure: solution-phase peptide synthesis; DCC/HOBt. The settings on record: acetate.

The results in this text go back to patent EP0393786B1 (SCLAVO S.p.A., priority 1989, dated 1990).

CH₃COOH.H-Arg-Lys-gAsp-(R,S)mVal-Tyr-OH had a step yield (late stage modification step) of 56%.
Under “coupling step”, “Z-Lys(Boc)-gAsp(OBu^t)-(R,S)mVal-Tyr(Bu^t)OBu^t” showed a step yield of 71%.
